# Laboratory results taken from patent US20160030407A1, “Method of Treating Inflammatory Lung Disease” (priority 2010, published 2016).
# Several values for one entry are separate records, joined by “and”; a condition that tells them apart may be missing. Equal values may be shown once. This continues a long series; more values of the same kind are listed elsewhere.
# Assay: Plasma pharmacokinetics after oral multi-dose anatabine polacrilex
# Format: in vivo, Sprague-Dawley rats
# Details: for Cp, min (2): after dose 2, mean; for Cp, min (1): after dose 1, mean; for Anatabine Concentration in rat plasma: individual animals
# Procedure: This study consisted of two groups of 8 animals each, 4 males and 4 females.
# The vehicle was sterile phosphate buffered saline (PBS) (Amresco). […] Two formulations were prepared; one for each of the two treatment groups. The test compound was formulated for each treatment group just prior to the first dose administration and constantly stirred until dosing was completed (Table 37). Four aliquots of each dose level formulation were collected and stored at −80° C.
# The animals were weighed prior to dosing and received three doses p.o. of test compound at a volume of 5 mL/kg. Blood was collected via the venus plexus (retro-orbital) into tubes containing (K2) EDTA. No more than 0.5 mL was collected per time point.
# Sample preparation. Plasma samples were treated with three volumes of methanol containing internal standard at 1 μM (R,S)-Antabine-2,4,5,6-d4), incubated 10 min at 4° C., and centrifuged. The amount of the test agent in the supernatant was determined by LC/MS/MS.
# Analysis. Samples were analyzed by LC/MS/MS using an Agilent 6410 mass spectrometer coupled with an Agilent 1200 high pressure liquid chromatography (HPLC) and a CTC PAL chilled autosampler, all controlled by MassHunter software (Agilent). After separation on a Hydrophilic interaction liquid chromatography (HILIC) HPLC column (Sepax) using an acetonitrile-ammonium acetate/acetic acid gradient system, peaks were analyzed by mass spectrometry (MS) using ESI ionization in multiple reaction monitoring (MRM) mode. MassHunter software was used to calculate the concentration of the test compounds in samples from the peak area using the appropriate calibration curves.
# Descriptive statistics were calculated for all pharmacokinetic parameters. Elimination half-lives (t1/2) were calculated by linear regression of logarithmically transformed plasma concentration data for each period between doses and following the final dose.
# Total areas under the plasma concentration curves (AUC) and under the first moment curves (AUMC) were calculated using linear trapezoidal summation across all concentration time points as well as for intervals between each dose administration and following the final dose. […] Mean absorption times (MAT) were calculated according to the following relation: […]
# [1] = Anatabine 6.0 mg/kg, female rats
smiles,measurement,setting,value
"C1=CCC(c2cccnc2)NC1 (racemic) [Anatabine, 1,2,3,6-tetrahydro-[2,3′]bipyridinyl]","Cp, min (2)","Anatabine 0.6 mg/kg, female rats",0.0075 µg/mL
same,"Cp, min (1)","Anatabine 0.6 mg/kg, male rats",0.011 µg/mL
same,"Cp, min (1)",[1],0.052 µg/mL
same,"Cp, min (2)",[1],0.18 µg/mL
same,"Cp, min (1)","Anatabine 6.0 mg/kg, male rats",0.075 µg/mL
same,"Cp, min (2)","Anatabine 6.0 mg/kg, male rats",0.093 µg/mL
same,Anatabine Concentration in rat plasma,"dose 0.2 mg/kg, female, 30 min",34 ng/mL (2×) and 42 ng/mL and 38 ng/mL
same,Anatabine Concentration in rat plasma,"dose 0.2 mg/kg, female, 60 min",29 ng/mL and 33 ng/mL and 47 ng/mL and 25 ng/mL
same,Anatabine Concentration in rat plasma,"dose 0.2 mg/kg, female, 235 min",4 ng/mL and 18 ng/mL and 6 ng/mL and 13 ng/mL
same,Anatabine Concentration in rat plasma,"dose 0.2 mg/kg, female, 270 min",14 ng/mL and 11 ng/mL and 17 ng/mL and 51 ng/mL
same,Anatabine Concentration in rat plasma,"dose 0.2 mg/kg, female, 300 min",18 ng/mL and 31 ng/mL and 25 ng/mL and 44 ng/mL
same,Anatabine Concentration in rat plasma,"dose 0.2 mg/kg, female, 475 min",7 ng/mL (2×) and 6 ng/mL and 10 ng/mL
same,Anatabine Concentration in rat plasma,"dose 0.2 mg/kg, female, 540 min",24 ng/mL and 44 ng/mL and 29 ng/mL (2×)
same,Anatabine Concentration in rat plasma,"dose 0.2 mg/kg, female, 600 min",12 ng/mL and 18 ng/mL and 20 ng/mL and 45 ng/mL
same,Anatabine Concentration in rat plasma,"dose 0.2 mg/kg, female, 720 min",18 ng/mL and 15 ng/mL (2×) and 7 ng/mL
same,Anatabine Concentration in rat plasma,"dose 0.2 mg/kg, male, 30 min",29 ng/mL and 37 ng/mL and 34 ng/mL
same,Anatabine Concentration in rat plasma,"dose 0.2 mg/kg, male, 60 min",32 ng/mL and 34 ng/mL and 24 ng/mL and 26 ng/mL
same,Anatabine Concentration in rat plasma,"dose 0.2 mg/kg, male, 235 min",11 ng/mL and 13 ng/mL and 9 ng/mL
same,Anatabine Concentration in rat plasma,"dose 0.2 mg/kg, male, 270 min",35 ng/mL and 31 ng/mL and 20 ng/mL and 26 ng/mL
same,Anatabine Concentration in rat plasma,"dose 0.2 mg/kg, male, 300 min",22 ng/mL (2×) and 26 ng/mL and 29 ng/mL
same,Anatabine Concentration in rat plasma,"dose 0.2 mg/kg, male, 475 min",9 ng/mL and 18 ng/mL and 19 ng/mL
same,Anatabine Concentration in rat plasma,"dose 0.2 mg/kg, male, 540 min",4 ng/mL and 28 ng/mL and 41 ng/mL and 43 ng/mL
same,Anatabine Concentration in rat plasma,"dose 0.2 mg/kg, male, 600 min",17 ng/mL and 35 ng/mL and 34 ng/mL
same,Anatabine Concentration in rat plasma,"dose 0.2 mg/kg, male, 720 min",5 ng/mL and 12 ng/mL and 19 ng/mL
same,Anatabine Concentration in rat plasma,"dose 2 mg/kg, female, 235 min",75 ng/mL and 36 ng/mL and 23 ng/mL and 72 ng/mL
same,Anatabine Concentration in rat plasma,"dose 2 mg/kg, female, 300 min",97 ng/mL
same,Anatabine Concentration in rat plasma,"dose 2 mg/kg, male, 235 min",46 ng/mL and 63 ng/mL and 84 ng/mL
same,Anatabine Concentration in rat plasma,"dose 2 mg/kg, male, 720 min",71 ng/mL
